Data on 25 compounds can be found in PubChem BioAssay AID248 (DTP/NCI, 2004).

The assay concerns L1210 leukemia ip in BDF1 mice, survival T/C. The assay can be described thus: NCI In Vivo Anticancer Drug Screen. Data for tumor model L1210 Leukemia (intraperitoneal) in B6D2F1 (BDF1) mice. Conditions: T/C endpoint: mean survival time, higher T/C = longer survival.
[1] abbreviates: dose: 100.0 mg/kg/injection, schedule: Q04DX002 (ip), vehicle: Klucel (hydroxypropylcellulose) (HPC).
Where [2] appears, read: dose: 300.0 mg/kg/injection, schedule: Q01DX001 (ip), vehicle: saline.
[3] abbreviates: dose: 400.0 mg/kg/injection, schedule: Q01DX001 (ip), vehicle: saline.
Setting [4] is: dose: 400.0 mg/kg/injection, schedule: Q01DX009 (ip), vehicle: saline with Tween-80.
The mark [5] stands for this setting: dose: 400.0 mg/kg/injection, schedule: Q04DX003 (ip), vehicle: saline.
Where [6] appears, read: dose: 100.0 mg/kg/injection, schedule: Q01DX001 (ip), vehicle: Klucel (hydroxypropylcellulose) (HPC).
Setting [7] is: dose: 200.0 mg/kg/injection, schedule: Q01DX001 (ip), vehicle: Klucel (hydroxypropylcellulose) (HPC).
Setting [8] is: dose: 400.0 mg/kg/injection, schedule: Q01DX001 (ip), vehicle: Klucel (hydroxypropylcellulose) (HPC).
Setting [9] is: dose: 25.0 mg/kg/injection, schedule: Q04DX002 (ip), vehicle: Klucel (hydroxypropylcellulose) (HPC).
Where [10] appears, read: dose: 50.0 mg/kg/injection, schedule: Q04DX002 (ip), vehicle: Klucel (hydroxypropylcellulose) (HPC).

The list shows only some results of the screen, not a fair sample: it gathers tests that were run many times, whatever their T/C, doses with no T/C, and many T/C values between a quarter and a half above the control. Further doses and runs are listed elsewhere. T/C is the treated group as % of the vehicle group. Some entries give survivors of the animals treated and no T/C: the source files T/C as zero there, which appears to mark a toxic dose or a test without result, not a measured value. Some doses without a T/C left all or most animals alive at the check, yet need not have been tolerated: survival well below the control is almost never listed, so the zero probably covers shortened survival too. Counts of survivors are from the toxicity check (mostly the fifth day) where no day follows; animals may have died later. Schedules are NCI's codes, read here as Q, the interval in days (D) or hours (H), X, the number of doses. Some structures stand for samples that the source files as different forms (salt, stereo form or complex); doses refer to the form tested. Some entries were tested several times; the values are given in rising order. Some schedules carry Z or #; the key to these is not given. Where survival is the endpoint, the PubChem record calls one and a half times the control and up active, and a quarter to a half above the control has no call in these data; cut-offs in other NCI protocols can differ. Some T/C values are followed by the survivors on the day toxicity was checked, most often the fifth; where none is given, no animal had died by that day.

Take `ClC1=C(Cl)C(Cl)=C(Cl)C1=Cc1ccccc1`: the survivor count (dose: 12.5 mg/kg/injection, schedule: Q01DX009 (ip), vehicle: saline with Tween-80) is reported as 6 of 6; the survivor count (dose: 25.0 mg/kg/injection, schedule: Q01DX009 (ip), vehicle: saline with Tween-80) is reported as 1 of 6; the survivor count (dose: 50.0 mg/kg/injection, schedule: Q01DX009 (ip), vehicle: saline with Tween-80) is on record as 0 of 6; the survivor count (dose: 100.0 mg/kg/injection, schedule: Q01DX009 (ip), vehicle: saline with Tween-80) is reported as 0 of 6; the survivor count under setting [1] is reported as 3 of 3.

In the case of `O=c1c2nccnc2[nH]n1-c1ccccc1`, for the setting “dose: 12.5 mg/kg/injection, schedule: Q04DX003 (ip), vehicle: Klucel (hydroxypropylcellulose) (HPC)”, the survivor count is 6 of 6.

On to `CCCC1CCCC(=O)N1` (stereo not given), for which the survivor count under setting [2] was 0 of 6.

`CC1NC(=S)NC(=O)C1CCSC(=N)N` (stereo not given): the survivor count under setting [3] is 2 of 6.

For the compound `Brc1ccc(Nc2c3ccccc3nc3ccccc23)cc1`, under “dose: 400.0 mg/kg/injection, schedule: Q04DX003 (ip), vehicle: saline with Tween-80”, the survivor count is 0 of 6.

Take `O=C/C(Br)=C\c1ccccc1`: the survivor count (dose: 200.0 mg/kg/injection, schedule: Q04DX003 (ip), vehicle: Klucel (hydroxypropylcellulose) (HPC)) is listed as 0 of 6 and the survivor count (dose: 400.0 mg/kg/injection, schedule: Q04DX003 (ip), vehicle: Klucel (hydroxypropylcellulose) (HPC)) is on record as 1 of 6.

In the case of `O=C(O)CSC(=S)c1ccccc1`, under setting [4], the survivor count was 2 of 6.

For the compound `O=C1CC2c3ccccc3C1C1C(=O)OC(=O)C21` (stereo not given), the survivor count is, setting by setting: (dose: 200.0 mg/kg/injection, schedule: Q01DX009 (ip), vehicle: saline) 4 of 6; (dose: 400.0 mg/kg/injection, schedule: Q01DX009 (ip), vehicle: saline) 1 of 6; under setting [5], 0 of 6.

On to `c1n[nH]c2c1CCCC2`, for which the survivor count reads like this: (dose: 400.0 mg/kg/injection, schedule: Q01DX001 (ip), vehicle: saline with Tween-80) 3 of 6; under setting [4], 5 of 6; (dose: 400.0 mg/kg/injection, schedule: Q04DX002 (ip), vehicle: saline with Tween-80) 0 of 3.

Take `CN1C2C=C(c3ccccc3)C(Br)C1CC2` (stereo not given): the survivor count reads like this: (dose: 80.0 mg/kg/injection, schedule: Q04DX003 (ip), vehicle: saline with Tween-80) 6 of 6; under setting [2], 0 of 6.

On to `CNC(=S)N/N=C(\C)CSC/C(C)=N/NC(=S)NC`, for which, for the setting “dose: 50.0 mg/kg/injection, schedule: Q04DX003 (ip), vehicle: Klucel (hydroxypropylcellulose) (HPC)”, the survivor count is on record as 8 of 8.

For the compound `CCN(C)CCC(CN)(CCN(C)CC)c1cccc2ccccc12`, the survivor count runs as follows: (dose: 100.0 mg/kg/injection, schedule: Q04DX003 (ip), vehicle: saline) 2 of 6; (dose: 200.0 mg/kg/injection, schedule: Q04DX003 (ip), vehicle: saline) 0 of 6; under setting [5], 0 of 6.

Regarding `O=C(Cc1ccccc1)NCCO`, where the note is “dose: 400.0 mg/kg/injection, schedule: Q04DX002 (ip), vehicle: saline”, the T/C is 125 % of control.

Take `O=C1C=C(N2CC2)c2ccccc2C1=O`: the survivor count is given as 2 of 6 (dose: 40.0 mg/kg/injection, schedule: Q01DX001 (ip), vehicle: Klucel (hydroxypropylcellulose) (HPC)); 3 of 6 (dose: 40.0 mg/kg/injection, schedule: Q01DX009 (ip), vehicle: Klucel (hydroxypropylcellulose) (HPC)); 0 of 6 (dose: 80.0 mg/kg/injection, schedule: Q01DX001 (ip), vehicle: Klucel (hydroxypropylcellulose) (HPC)); 0 of 6 under setting [6]; 0 of 6 under setting [7]; 0 of 6 under setting [8].

Turning to `O=C(Nc1ccc(CC2=NCCN2)cc1)c1cccc(C(=O)Nc2ccc(CC3=NCCN3)cc2)c1`, the survivor count by setting is: (dose: 33.0 mg/kg/injection, schedule: Q01DX Z (ip), vehicle: carboxymethylcellulose (CMC)) 2 of 6; (dose: 50.0 mg/kg/injection, schedule: Q01DX Z (ip), vehicle: carboxymethylcellulose (CMC)) 0 of 6; (dose: 75.0 mg/kg/injection, schedule: Q01DX Z (ip), vehicle: carboxymethylcellulose (CMC)) 0 of 6.

For the compound `CN(C)CCCNc1c2ccccc2nc2ccc(F)cc12`, the survivor count runs as follows: (dose: 40.0 mg/kg/injection, schedule: Q01DX001 (ip), vehicle: saline) 4 of 4; (dose: 80.0 mg/kg/injection, schedule: Q01DX001 (ip), vehicle: saline) 0 of 4.

On to `Cc1cc(C)n2ncnc2n1`, for which the survivor count under setting [4] is on record as 0 of 6.

`ClC(Cl)[P+](N1CCCCC1)(N1CCCCC1)N1CCCCC1`: the survivor count reads like this: (dose: 6.0 mg/kg/injection, schedule: Q04DX003 (ip), vehicle: Klucel (hydroxypropylcellulose) (HPC)) 3 of 6; (dose: 12.0 mg/kg/injection, schedule: Q04DX003 (ip), vehicle: Klucel (hydroxypropylcellulose) (HPC)) 2 of 6; (dose: 12.5 mg/kg/injection, schedule: Q04DX002 (ip), vehicle: Klucel (hydroxypropylcellulose) (HPC)) 2 of 3; under setting [9], 0 of 3; under setting [10], 0 of 3; under setting [1], 0 of 3. Also, the survivor count by setting is: (dose: 200.0 mg/kg/injection, schedule: Q04DX002 (ip), vehicle: Klucel (hydroxypropylcellulose) (HPC)) 0 of 3; (dose: 400.0 mg/kg/injection, schedule: Q04DX002 (ip), vehicle: Klucel (hydroxypropylcellulose) (HPC)) 0 of 3.

Take `COc1ccc(NC(=O)Oc2ccccc2C(N)=O)c(OC)c1`: the survivor count reads like this: (dose: 200.0 mg/kg/injection, schedule: Q01DX009 (ip), vehicle: Klucel (hydroxypropylcellulose) (HPC)) 4 of 6; (dose: 400.0 mg/kg/injection, schedule: Q01DX009 (ip), vehicle: Klucel (hydroxypropylcellulose) (HPC)) 0 of 6.

With `COc1ccc(CN2CC(C)NC(C)C2)cc1` (stereo not given), the survivor count (dose: 25.0 mg/kg/injection, schedule: Q01DX009 (ip), vehicle: water) was 6 of 6; the survivor count (dose: 50.0 mg/kg/injection, schedule: Q01DX009 (ip), vehicle: water) is on record as 6 of 6; the survivor count (dose: 100.0 mg/kg/injection, schedule: Q01DX009 (ip), vehicle: water) was 5 of 6; the survivor count (dose: 200.0 mg/kg/injection, schedule: Q01DX009 (ip), vehicle: water) is given as 6 of 6; the survivor count (dose: 400.0 mg/kg/injection, schedule: Q01DX009 (ip), vehicle: water) was 0 of 6.

Turning to `CC(C)(C)SCCC(=O)NC1CCCCC1`, under setting [5], the survivor count was 3 of 6.

For the compound `Nc1cccc[n+]1CC1(c2ccccc2)OCCO1`, the survivor count under setting [7] was 1 of 6.

With `CC(=O)[O][Pb]([CH2]C(C)C)([CH2]C(C)C)[CH2]C(C)C`, the survivor count is given as 2 of 3 (dose: 12.5 mg/kg/injection, schedule: Q01DX009 (ip), vehicle: Klucel (hydroxypropylcellulose) (HPC)); 0 of 3 (dose: 25.0 mg/kg/injection, schedule: Q01DX009 (ip), vehicle: Klucel (hydroxypropylcellulose) (HPC)); 1 of 3 under setting [9]; 0 of 3 under setting [10]; 0 of 6 under setting [6]; 0 of 6 under setting [7]. In addition, the survivor count under setting [8] is on record as 0 of 6.

Regarding `Cc1ccc(Nc2c3ccccc3nc3ccccc23)cc1`, under “dose: 150.0 mg/kg/injection, schedule: Q01DX001 (ip), vehicle: saline”, the T/C was 126 [5 of 6 alive] and 128 % of control. Besides, the survivor count is recorded as 3 of 6 (dose: 150.0 mg/kg/injection, schedule: Q01DX009 (ip), vehicle: saline with Tween-80) and 0 of 6, 1 of 6, 2 of 6 under setting [2].

Regarding `c1ccc2c(c1)OC1OC2Oc2ccccc21`, the T/C under setting [3] was 125 % of control.
